In US20220119492A1 one finds binding data, which are given here for two molecules.

Experiment [1] addresses cynomolgus monkey Rγc subunit (cynomolgus monkey). The experiment is described as follows: competition ELISA, peptide tracer. Background: An ELISA detects its analyte on a solid surface through an enzyme-linked reagent.
Experiment [2] has as its target cynomolgus monkey IL-2Rβ subunit (cynomolgus monkey). The experiment is described as follows: competition ELISA, peptide tracer.

No constants are given. Whether binding was seen depends on the method and setting. A result given as binding can be weak or reduced; the word gives no strength.

As to GGWYPCWMAQLGELCDLDGGGGSGGVVCQDWEGVELCWQGG [IL-2Rβγc ligand having SEQ ID NO: 1263], the binding entry in experiment [1] is recorded as “binds”.

B1: IL-2Rβγc ligand having SEQ ID NO: 4171 (peptide)
peptide: GGGELLVDCFKVKVGELCDLFFGPAPAPAPAPAPAPAPAGVVCQDWEGVELCWQGG
As to B1, the binding entry in experiment [2] and in experiment [1] was “binds” in each case.
